Data: patent US20240131032A1, “AN ACTIVITY-GUIDED MAP OF ELECTROPHILE-CYSTEINE INTERACTIONS IN PRIMARY HUMAN IMMUNE CELLS” (The Scripps Research Institute, priority 2019, published 2024)
Some results were stated once for a whole list of compounds, not compound by compound. For part of these data: At least one compound was matched to its structure with a doubt left.

Columns and labels:
[1] = tested on: primary human T cells; assay: Multidimensional screen for inhibition of T cell activation (IL-2, IFN-γ secretion, CD25, CD69 expression); format: cell-based; settings: concentration-dependent profiles, 24 h
Method: FIG. 4A-4D is an overview of a multidimensional screen to identify elaborated electrophilic compounds that suppress T cell activation. FIG. 4A is a workflow for T-cell activation screen. Primary human T cells were treated with a focused library of elaborated electrophilic compounds (10 μM, structures of compounds in FIG. 12), a positive control immunosuppressive compound (DMF, 50 μM), or DMSO under TCR-stimulating conditions in 96-well plates pre-coated with 5 μg/mL αCD3 and 2 μg/mL αCD28 for 24 h. T cell activation was measured using a combination of markers, including IL2 and IFNγ secretion, as well as surface expression of CD25 and CD69. T cell viability was measured by flow cytometry using a Fixable Near-IR LIVE/DEAD™ Cell Stain. Compounds were considered as active hits if they reduced IL2 cytokine production by >65% with <15% reduction in T cell viability in the cytotoxicity assay compared to DMSO control. […] FIG. 4C are structures of active hit compounds selected for follow-up studies, including two acrylamides (BPK-21, BPK-25), two chloroacetamides (EV-3, EV-93) and DMF as a positive control. FIG. 4D are line graphs showing T cell activation and cytotoxicity profiles for selected hit compounds.
Non-tissue culture treated 96-well plates were pre-coated with αCD3 (5 μg/mL) and αCD28 antibodies (2 μg/mL) in PBS (100 μL/well) and left at 4° C. overnight. Freshly isolated T cells were re-suspended in RPMI media supplemented with 10% FBS, L-glutamine (2 mM), penicillin (100 U/mL), and streptomycin ([…]) at 2×10^6 cells/mL. Compound stocks (200×) in DMSO were diluted to 2× stocks in the working RPMI media in another 96-well plate. The pre-coated 96-well treatment plates were washed with PBS ([…]), T cells (100 μL/well, 2×10^5 cells/well) were then added to the wells, followed by the addition of 2× compound stocks in RPMI media (100 μL). The outer wells of the plates were filled with media without cells to avoid the edge effect in the assay. The treatment was done overnight (24 h) at 37° C. in a 5% CO2 containing incubator. Following the treatment, the cells were transferred to a U-bottom 96-well plate and harvested by centrifugation (600 g, 3 min, 4° C.). […]
The levels of secreted IL2, IFNγ and TNFα after incubating T cells in the presence of DMSO or electrophilic compounds under TCR-stimulating conditions were measured using DuoSet ELISA cytokine kits (R&D Systems) in clear microplates (R&D Systems) according to manufacturer's instructions and read using a CLARIOstar (BMG Labtech) plate reader (450 nm). All cytokine concentrations were calculated according to the standard curve generated for each experiment.

[2] = tested on: NF-κB; assay: NF-κB activation in stimulated T cells (phosphorylation readout); format: cell-based, human; settings: 24 h
Method: All treatments were for 24 h.
Freshly isolated T cells (2×10^5 cells/well) were harvested and stimulated as described before in a 96-well plate in the presence of DMSO or compounds of interest. Following the overnight treatment, the cells were pelleted in a U-bottom plate, harvested by centrifugation (600 g, 3 min, 4° C.), washed with PBS, and stained with near-IR LIVE/DEAD dye as described above. After the staining, intracellular phospho-NF-κB p65 (Ser536) levels were measured using PE conjugate of phospho-NF-κB p65 (Ser536) (93H1) rabbit antibody (Cell Signaling Technology) according to manufacturer's instructions. Briefly, the cells were washed with PBS and fixed with 4% PFA in PBS (100 μL, 15 min, rt). The cells were washed with PBS again (2×150 μL), placed on ice and permeabilized with 90% MeOH (100 μL/well, slow addition with gentle mixing by pipetting up and down). Following a 30 min incubation on ice, the plate was sealed and stored at −20° C. overnight. The following day, the cells were thawed on ice, washed with PBS (150 μL×2), and stained with PE conjugate of phospho-NF-κB p65 (Ser536) (93H1) rabbit antibody (50 μL, 1:100 dilution in incubation buffer (1% FBS in PBS)) for 1 h at rt in the dark. The cells were then washed with incubation buffer (150 μL×2) and resuspended in PBS for further flow cytometry analysis.

[3] = tested on: NFATc2; assay: NFAT pathway activation in stimulated T cells (western blot of NFATc2); format: cell-based, human; settings: 4 h
Method: FIG. 22A and FIG. 22B show the effects of active compounds on NFAT pathway activation. […] FIG. 22C and FIG. 22D show the effects of active compounds on MAPK pathway. […] All treatments were done for 24 h.

Structure (SMILES) | concentration giving near-complete blockade of T cell activation [1] [µM] | reductions in phosphorylation (NF-κB activation) [2] [%] | reductions in NFATc2 dephosphorylation (NFAT activation) [3] [%]
C=CC(=O)N(Cc1cccc(Cl)c1Cl)c1ccc(Oc2ccccc2)c(C(F)(F)F)c1 [BPK-21] | < 20 |  | 
C=CC(=O)N(Cc1cccc(Cl)n1)c1ccc(C(=O)Nc2ccccc2)nc1 [BPK-25] | < 20 | > 50 | > 50
COC(=O)/C=C/C(=O)OC [DMF, reference compound] |  | > 50 | 
O=C(CCl)N1CCN(S(=O)(=O)c2ccc(-c3ccncc3)cc2)CC1 [EV-3] | < 20 | > 50 | > 50
O=C(c1cccc(N2CCOCC2)c1)N1CCC(N(C(=O)CCl)c2ccccc2)C(Cc2ccccc2)C1 (stereo not drawn) [EV-93] | < 20 |  | 
